Measured values taken from PMC5660992.

Biological target: AthBG2 fused to the N-terminal half of EYFP (BiFC construct) (A. thaliana)
Assay: split reporter; BiFC with nEYFP(1-174) and cEYFP(175-end) fusions cotransformed in onion peel by gene gun; 22°C in darkness for 24 h; confocal microscopy

B1: Y14 fused to the C-terminal half of EYFP (BiFC construct) (protein, UniProt F4I9J7 1-202)
chain: MANIESEAVDFEPEEDDLMDEEGTAIDGADVSPRAGHPRLKSAIAGANGESAKKTKGRGFREEKDSDRQRRLSSRDFESLGSDGRPGPQRSVEGWIILVSGVHEETQEEDITNAFGDFGEIKNLNLNLDRRSGYVKGYALIEYEKKEEAQSAISAMNGAELLTQNVSVDWAFSSGPSGGESYRRKNSRYGRSQRSRSPRRRY
**Q.** Which binding does the source give for B1 here?
**A.** binds

Results are given in words; binding and its absence hold for the method and conditions named. In cells and extracts the contact can be indirect. Binding calls can cover weak binding; strength is not graded here. Tags and fused reporters may be left off the sequences shown.
